Measurements as given in US6518243B1, “Desleucyl glycopeptide antibiotics and methods of making same” (Trustees of Princeton University, priority 1999, dated 2003).

Test system: resistant isolates
Description: The antibacterial activity of each of the compounds against the bacterial strains E. faceium (ATCC 49624), S. epidermidis (ATCC 12228), S. aureus (ATCC 29213), E. faecalis (CL 4877) and E. faecalis (ATCC 292121) was tested. Each of the compounds was screened in a 96 will agar array format.

With `CN[C@H](CC(C)C)C(=O)N[C@H]1C(=O)N[C@@H](CC(N)=O)C(=O)N[C@H]2C(=O)N[C@H]3C(=O)N[C@H](C(=O)N[C@@H](C(=O)O)c4cc(O)cc(O)c4-c4cc3ccc4O)[C@H](O)c3ccc(c(Cl)c3)Oc3cc2cc(c3O[C@@H]2O[C@H](CO)[C@@H](O)[C@H](O)[C@H]2O[C@@H]2C[C@@](C)(NCc3ccc(-c4ccc(Cl)cc4)cc3)[C@@H](O)[C@@H](C)O2)Oc2ccc(cc2Cl)[C@H]1O` [p-chlorobiphenylvancomycin, p-chlorobiphenyl vancomycin] the “MIC against resistant isolates” value was “approximately 6 ug/ml”.
